Literature values in patent US12161616B2, “Combination therapy comprising an omega-3 fatty acid, a folate species and a vitamin B12 species” (Oxford University Innovation Limited, priority 2014, dated 2024).
For at least one compound, name, drawing or mass did not settle the structure.

Tested on: AD patients
Conditions: compared to the placebo group; cited from earlier work

Question: Which “Effect on the rate of progression of cognitive and functional decline” value does the source give for `CC/C=C\C/C=C\C/C=C\C/C=C\C/C=C\C/C=C\CCC(=O)O` [22:6n-3 (DHA), Docosahexaenoic acid] here?
Answer: Its value is “no effect”.
